Results as given in PubChem BioAssay AID624297 (National Center for Advancing Translational Sciences (NCATS), 2012).
About 6,200 (1.8%) of roughly 340,000 compounds were called active. Inconclusive results, whose numbers are uncertain, are shown with a selection of clear calls. The call rests on the fitted dose curve; in most records, active means well fitted activation curve with a large enough effect; inconclusive means small, poorly fitted or top-dose-only effect; inactive means no such curve, though single readings can be large or run the other way. A potency beside an inconclusive call is a rough fit, not a confirmed value.

experiment: A quantitative high throughput screen for small molecules that induce DNA re-replication in SW480 colon adenocarcinoma cells.; further: nearly all actives have a fitted effect of over 55% in size; on re-replication activation: % of control where 0% means no effect; conditions: Hoechst DNA content imaging, 48 h; re-replication activation: at 46.1 µM (top of the series) unless noted
In short: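 Image-based DNA-content assay: after two days of treatment, nuclei were labelled with the DNA dye Hoechst and imaged, and hits were compounds raising the count of nuclei showing high fluorescence intensity.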
Potency means the concentration at half of the fitted maximal effect.

SMILES	re-replication activation	Potency
Cc1ccccc1C(=O)NNC(=O)CCCCC(=O)NNC(=O)c1ccccc1C	inactive: 7.84%	–
Cc1ccc(S(=O)(=O)N2CCOCC2)cc1C(=O)NCc1cccnc1	inactive: 10.4%	–
O=C1C=C(c2cccc(CO)c2)C[C@@H](c2ccc(Cl)cc2)C1	inactive: -4.9%	–
COc1ccc(NC(=O)NC(C)(C(F)(F)F)C(F)(F)F)cc1	–	inconclusive: 20.6 µM [activator, single point]
N#CC1=C(N)NC(SCc2ccc(F)cc2)=C(C#N)C12CCCCC2	–	inconclusive: 29.1 µM [activator, single point]
C/C(=N/Nc1nc(-c2ccccc2)cc(-c2ccc(F)cc2)n1)c1cccc(N)c1	–	inconclusive: 29.1 µM [activator, partial curve, poor fit]
Cc1ccc(NC(=O)CSc2nnc(-c3cccnc3)n2CCN2CCCCC2)cc1	–	inconclusive: 18.4 µM [activator, partial curve, poor fit]
O=C(NNC(=O)c1cc(C(F)(F)F)cc(C(F)(F)F)c1)c1ccc(Cl)cc1	–	inconclusive: 29.1 µM [activator, single point]
O=C(N/N=C/c1cccc(O)c1)c1ccc(-n2cnnn2)cc1	–	inconclusive: 0.0259 µM [activator, full curve, poor fit]
COc1ccc(N=N/C(=C\O)C(=O)c2cccs2)cc1	–	inconclusive: 29.1 µM [activator, single point]
COc1cccc2sc(N(C)c3ccccc3)nc12	inactive: 5.13%	–
CCCCCCC(C)n1cc(C(C)=O)c(=O)n(C)c1=O (stereo not given)	–	inconclusive: 9.2 µM [activator, partial curve, poor fit]
O=C(CSc1nnc(-c2ccco2)o1)c1ccc[nH]1	–	inconclusive: 5.8 µM [activator, partial curve, poor fit]
CCOC(=O)CN1C(=O)S/C(=C/c2ccco2)C1=O	–	inconclusive: 20.6 µM [activator, single point]
N[C@@H](Cc1cc(I)c(Oc2cc(I)c(O)c(I)c2)c(I)c1)C(=O)O	–	inactive
O=C(NCC1CCCO1)c1ccc(COc2ccccc2Br)cc1 (stereo not given)	–	inconclusive: 0.517 µM [activator, partial curve, poor fit]
Cc1cc(C(=O)Nc2sc3c(c2C#N)CCC(C)C3)no1 (stereo not given)	–	inconclusive: 23.1 µM [activator, single point]
N#CC(=C1Nc2ccccc2N1)S(=O)(=O)c1ccccc1	–	inconclusive: 29.1 µM [activator, single point]
Cc1ccccc1CNc1ncnc2cc(Cl)ccc12	inactive: -2.07%	–
N#C/C(=C/C1=C(N2CCOCC2)C(=C/c2ccc(Cl)cc2Cl)/CC1)C(=O)Nc1ccccc1F	inactive: -7.07%	–

A second format for two compounds above.
Cc1cc(C(=O)Nc2sc3c(c2C#N)CCC(C)C3)no1 (stereo not given)
  Potency: inconclusive: 23.1 µM [activator, single point]
N#C/C(=C/C1=C(N2CCOCC2)C(=C/c2ccc(Cl)cc2Cl)/CC1)C(=O)Nc1ccccc1F
  re-replication activation: inactive: -7.07%
